Results from PubChem BioAssay AID1632 (University of Pittsburgh Molecular Library Screening Center, 2009).
The list shows a part of the results. These are further read-outs of the screen, such as a control signal, another cell line or another target. No call is given for them.

System: hexokinase 1 [Trypanosoma brucei]
Assay: T. brucei hexokinase 1 inhibitor potency, dose response, biochemical, IC50 (AID 1632)
Details: recombinant TbHK1 enzyme assay, absorbance read-out, at 100 µM, stronger effect = higher value

Compound: O=c1c2ccccc2sn1-c1nccs1
- inhibition: 13.4%
